IC50 data for 1 compound are collected here from patent US20100239652A1, “IMMUNOLIPOSOMES FOR TREATMENT OF CANCER” (UNIVERSITATSSPITAL BASEL, priority 2008, published 2010).

In brackets after ≈: the same amount, converted by molar mass.

In this assay the test system is MDA-MB-231. In words: Cytotoxicity study, MTT staining. The format is cell-based, human. Conditions: parental wild-type, lacking mdr; 2 h treatment, MTT after 3 days. On the procedure: Specific cytotoxicity of EGFR-targeted immunoliposomes containing doxorubicin was evaluated in target cells plated at a density of 8,000 cells per well in 96-well plates and allowed to grow overnight. Immunoliposomes or control treatments were applied for 2 h at 37° C., followed by washing with PBS and re-adding growth media. Cells were further incubated at 37 DC for 3 days and analyzed for cell viability using 3-(4,5-dimethylthiazol-2-yl)-2,5-diphenyl tetrazolium bromide (MTT) staining (41). For the cytotoxicity studies using the efflux pump inhibitor verapamil, this compound was added to the media at a concentration of 100 μM during the complete experiment.

Take `COc1cccc2c1C(=O)c1c(O)c3c(c(O)c1C2=O)C[C@@](O)(C(=O)CO)C[C@@H]3O[C@H]1C[C@H](N)[C@H](O)[C@H](C)O1` [free dox, doxorubicin]: the IC50 worked out at 0.6 µg/mL (≈ 1.1 µM).
